Test system: BAF complex subunits and histone proteins
Test: Mass spectrometry proteomics of purified HA-SS18 WT and HA-SS18-SSX1 complexes (Tables 5A-5E)
Design: species or system human
[1] = HA-SS18SSX1_CHR_peptides: proteins found in HA-SS18-SSX1 BAF complex purification from solubilized chromatin (CHR), HEK-293T
[2] = HA-SS18SSX1_NE_peptides: protein co-purified with HA-SS18-SSX1 BAF complexes from soluble nuclear extract (NE), HEK-293T cells
[3] = HA-SS18WT_CHR_peptides: protein identified in HA-SS18 WT BAF complex purification from nuclease-treated solubilized chromatin (CHR), HEK-293T
[4] = HA-SS18SSX1 purification, NE (soluble nuclear extract) fraction, HEK-293T, peptides per identified protein
[5] = HA-SS18SSX1_CHR_peptides: protein identified in the HA-SS18-SSX1 purification from solubilized chromatin (CHR), HEK-293T
[6] = HA-SS18WT_CHR_peptides: HA-SS18 WT purification from nuclease-treated solubilized chromatin (CHR), HEK-293T, label = protein identified
[7] = HA-SS18WT_NE_peptides: HA-SS18 WT complexes purified from nuclear extract (NE), HEK-293T, label = protein identified (Gene Symbol)

B1: RING1 (protein, UniProt Q06587 1-406, looked up)
E3 ubiquitin-protein ligase …: MTTPANAQNASKTWELSLYELHRTPQEAIMDGTEIAVSPRSLHSELMCPICLDMLKNTMTTKECLHRFCSDCIVTALRSGNKECPTCRKKLVSKRSLRPDPNFDALISKIYPSREEYEAHQDRVLIRLSRLHNQQALSSSIEEGLRMQAMHRAQRVRRPIPGSDQTTTMSGGEGEPGEGEGDGEDVSSDSAPDSAPGPAPKRPRGGGAGGSSVGTGGGGTGGVGGGAGSEDSGDRGGTLGGGTLGPPSPPGAPSPPEPGGEIELVFRPHPLLVEKGEYCQTRYVKTTGNATVDHLSKYLALRIALERRQQQEAGEPGGPGGGASDTGGPDGCGGEGGGAGGGDGPEEPALPSLEGVSEKQYTIYIAPGGGAFTTLNGSLTLELVNEKFWKVSRPLELCYAPTKDPK
B1 was tested, and the “Total (peptides)” value [1] was 1, the “Unique (peptides)” value [1] was 1 and the “Total (peptides)” value [2] was 1. The “Unique (peptides)” value [2] was 1, the “Total (total peptides)” value [3] was 1 and the “Unique (unique peptides)” value [3] was 1.

B2: PATZ1 (protein, UniProt Q9HBE1 1-687, looked up)
POZ-, AT hook-, and zinc …: MERVNDASCGPSGCYTYQVSRHSTEMLHNLNQQRKNGGRFCDVLLRVGDESFPAHRAVLAACSEYFESVFSAQLGDGGAADGGPADVGGATAAPGGGAGGSRELEMHTISSKVFGDILDFAYTSRIVVRLESFPELMTAAKFLLMRSVIEICQEVIKQSNVQILVPPARADIMLFRPPGTSDLGFPLDMTNGAALAANSNGIAGSMQPEEEAARAAGAAIAGQASLPVLPGVDRLPMVAGPLSPQLLTSPFPSVASSAPPLTGKRGRGRPRKANLLDSMFGSPGGLREAGILPCGLCGKVFTDANRLRQHEAQHGVTSLQLGYIDLPPPRLGENGLPISEDPDGPRKRSRTRKQVACEICGKIFRDVYHLNRHKLSHSGEKPYSCPVCGLRFKRKDRMSYHVRSHDGSVGKPYICQSCGKGFSRPDHLNGHIKQVHTSERPHKCQTCNASFATRDRLRSHLACHEDKVPCQVCGKYLRAAYMADHLKKHSEGPSNFCSICNRGFSSASYLKVHVKTHHGVPLPQVSRHQEPILNGGAAFHCARTYGNKEGQKCSHQDPIESSDSYGDLSDASDLKTPEKQSANGSFSCDMAVPKNKMESDGEKKYPCPECGSFFRSKSYLNKHIQKVHVRALGGPLGDLGPALGSPFSPQQNMSLLESFGFQIVQSAFASSLVDPEVDQQPMGPEGK
B2 was tested, and the “Total (peptides)” value [1] was 1, the “Unique (peptides)” value [1] was 1 and the “Total (total peptides)” value [4] was 3. For the same molecule, the “Unique (unique peptides)” value [4] was 3, the “Total (total peptides)” value [3] was 1 and the “Unique (unique peptides)” value [3] was 1.

B3: GTF3C3 (protein, UniProt Q9Y5Q9 2-886, looked up)
General transcription factor …: SGFSPELIDYLEGKISFEEFERRREERKTREKKSLQEKGKLSAEENPDDSEVPSSSGINSTKSQDKDVNEGETSDGVRKSVHKVFASMLGENEDDEEEEEEEEEEEEEEETPEQPTAGDVFVLEMVLNRETKKMMKEKRPRSKLPRALRGLMGEANIRFARGEREEAILMCMEIIRQAPLAYEPFSTLAMIYEDQGDMEKSLQFELIAAHLNPSDTEEWVRLAEMSLEQDNIKQAIFCYTKALKYEPTNVRYLWERSSLYEQMGDHKMAMDGYRRILNLLSPSDGERFMQLARDMAKSYYEANDVTSAINIIDEAFSKHQGLVSMEDVNIAAELYISNKQYDKALEIITDFSGIVLEKKTSEEGTSEENKAPENVTCTIPDGVPIDITVKLMVCLVHLNILEPLNPLLTTLVEQNPEDMGDLYLDVAEAFLDVGEYNSALPLLSALVCSERYNLAVVWLRHAECLKALGYMERAAESYGKVVDLAPLHLDARISLSTLQQQLGQPEKALEALEPMYDPDTLAQDANAAQQELKLLLHRSTLLFSQGKMYGYVDTLLTMLAMLLKVAMNRAQVCLISSSKSGERHLYLIKVSRDKISDSNDQESANCDAKAIFAVLTSVLTKDDWWNLLLKAIYSLCDLSRFQEAELLVDSSLEYYSFYDDRQKRKELEYFGLSAAILDKNFRKAYNYIRIMVMENVNKPQLWNIFNQVTMHSQDVRHHRFCLRLMLKNPENHALCVLNGHNAFVSGSFKHALGQYVQAFRTHPDEPLYSFCIGLTFIHMASQKYVLRRHALIVQGFSFLNRYLSLRGPCQESFYNLGRGLHQLGLIHLAIHYYQKALELPPLVVEGIELDQLDLRRDIAYNLSLIYQSSGNTGMAQTLLYTYCSI
For B3, the “Total (peptides)” value [1] was 1 and the “Unique (peptides)” value [1] was 1.

B4: ATAD2 (protein, UniProt Q6PL18 1-1390, looked up)
ATPase family AAA …: MVVLRSSLELHNHSAASATGSLDLSSDFLSLEHIGRRRLRSAGAAQKKPAATTAKAGDGSSVKEVETYHRTRALRSLRKDAQNSSDSSFEKNVEITEQLANGRHFTRQLARQQADKKKEEHREDKVIPVTRSLRARNIVQSTEHLHEDNGDVEVRRSCRIRSRYSGVNQSMLFDKLITNTAEAVLQKMDDMKKMRRQRMRELEDLGVFNETEESNLNMYTRGKQKDIQRTDEETTDNQEGSVESSEEGEDQEHEDDGEDEDDEDDDDDDDDDDDDDDEDDEDEEDGEEENQKRYYLRQRKATVYYQAPLEKPRHQRKPNIFYSGPASPARPRYRLSSAGPRSPYCKRMNRRRHAIHSSDSTSSSSSEDEQHFERRRKRSRNRAINRCLPLNFRKDELKGIYKDRMKIGASLADVDPMQLDSSVRFDSVGGLSNHIAALKEMVVFPLLYPEVFEKFKIQPPRGCLFYGPPGTGKTLVARALANECSQGDKRVAFFMRKGADCLSKWVGESERQLRLLFDQAYQMRPSIIFFDEIDGLAPVRSSRQDQIHSSIVSTLLALMDGLDSRGEIVVIGATNRLDSIDPALRRPGRFDREFLFSLPDKEARKEILKIHTRDWNPKPLDTFLEELAENCVGYCGADIKSICAEAALCALRRRYPQIYTTSEKLQLDLSSINISAKDFEVAMQKMIPASQRAVTSPGQALSTVVKPLLQNTVDKILEALQRVFPHAEFRTNKTLDSDISCPLLESDLAYSDDDVPSVYENGLSQKSSHKAKDNFNFLHLNRNACYQPMSFRPRILIVGEPGFGQGSHLAPAVIHALEKFTVYTLDIPVLFGVSTTSPEETCAQVIREAKRTAPSIVYVPHIHVWWEIVGPTLKATFTTLLQNIPSFAPVLLLATSDKPHSALPEEVQELFIRDYGEIFNVQLPDKEERTKFFEDLILKQAAKPPISKKKAVLQALEVLPVAPPPEPRSLTAEEVKRLEEQEEDTFRELRIFLRNVTHRLAIDKRFRVFTKPVDPDEVPDYVTVIKQPMDLSSVISKIDLHKYLTVKDYLRDIDLICSNALEYNPDRDPGDRLIRHRACALRDTAYAIIKEELDEDFEQLCEEIQESRKKRGCSSSKYAPSYYHVMPKQNSTLVGDKRSDPEQNEKLKTPSTPVACSTPAQLKRKIRKKSNWYLGTIKKRRKISQAKDDSQNAIDHKIESDTEETQDTSVDHNETGNTGESSVEENEKQQNASESKLELRNNSNTCNIENELEDSRKTTACTELRDKIACNGDASSSQIIHISDENEGKEMCVLRMTRARRSQVEQQQLITVEKALAILSQPTPSLVVDHERLKNLLKTVVKKSQNYNIFQLENLYAVISQCIYRHRKDHDKTSLIQKMEQEVENFSCSR
In the case of B4, the “Total (total peptides)” value [5] is reported as 24, the “Unique (unique peptides)” value [5] is reported as 23 and the “Total (peptides)” value [6] is reported as 14. For the same molecule, the “Unique (peptides)” value [6] was 14.

B5: SSR4 (protein, UniProt P51571 24-173, looked up)
Translocon-associated protein …: EACLEPQITPSYYTTSDAVISTETVFIVEISLTCKNRVQNMALYADVGGKQFPVTRGQDVGRYQVSWSLDHKSAHAGTYEVRFFDEESYSLLRKAQRNNEDISIIPPLFTVSVDHRGTWNGPWVSTEVLAAAIGLVIYYLAFSAKSHIQA
B5 was tested, and the “Total (peptides)” value [1] was 1, the “Unique (peptides)” value [1] was 1 and the “Total (total peptides)” value [4] was 3. For the same molecule, the “Unique (unique peptides)” value [4] was 3, the “Total (total peptides)” value [3] was 1 and the “Unique (unique peptides)” value [3] was 1. The “Total (peptides)” value [7] was 6 and the “Unique (peptides)” value [7] was 4.

B6: ZMYND8 (protein, UniProt Q9ULU4 1-1186, looked up)
MYND-type zinc …: MDISTRSKDPGSAERTAQKRKFPSPPHSSNGHSPQDTSTSPIKKKKKPGLLNSNNKEQSELRHGPFYYMKQPLTTDPVDVVPQDGRNDFYCWVCHREGQVLCCELCPRVYHAKCLRLTSEPEGDWFCPECEKITVAECIETQSKAMTMLTIEQLSYLLKFAIQKMKQPGTDAFQKPVPLEQHPDYAEYIFHPMDLCTLEKNAKKKMYGCTEAFLADAKWILHNCIIYNGGNHKLTQIAKVVIKICEHEMNEIEVCPECYLAACQKRDNWFCEPCSNPHPLVWAKLKGFPFWPAKALRDKDGQVDARFFGQHDRAWVPINNCYLMSKEIPFSVKKTKSIFNSAMQEMEVYVENIRRKFGVFNYSPFRTPYTPNSQYQMLLDPTNPSAGTAKIDKQEKVKLNFDMTASPKILMSKPVLSGGTGRRISLSDMPRSPMSTNSSVHTGSDVEQDAEKKATSSHFSASEESMDFLDKSTASPASTKTGQAGSLSGSPKPFSPQLSAPITTKTDKTSTTGSILNLNLDRSKAEMDLKELSESVQQQSTPVPLISPKRQIRSRFQLNLDKTIESCKAQLGINEISEDVYTAVEHSDSEDSEKSDSSDSEYISDDEQKSKNEPEDTEDKEGCQMDKEPSAVKKKPKPTNPVEIKEELKSTSPASEKADPGAVKDKASPEPEKDFSEKAKPSPHPIKDKLKGKDETDSPTVHLGLDSDSESELVIDLGEDHSGREGRKNKKEPKEPSPKQDVVGKTPPSTTVGSHSPPETPVLTRSSAQTSAAGATATTSTSSTVTVTAPAPAATGSPVKKQRPLLPKETAPAVQRVVWNSSSKFQTSSQKWHMQKMQRQQQQQQQQNQQQQPQSSQGTRYQTRQAVKAVQQKEITQSPSTSTITLVTSTQSSPLVTSSGSMSTLVSSVNADLPIATASADVAADIAKYTSKMMDAIKGTMTEIYNDLSKNTTGSTIAEIRRLRIEIEKLQWLHQQELSEMKHNLELTMAEMRQSLEQERDRLIAEVKKQLELEKQQAVDETKKKQWCANCKKEAIFYCCWNTSYCDYPCQQAHWPEHMKSCTQSATAPQQEADAEVNTETLNKSSQGSSSSTQSAPSETASASKEKETSAEKSKESGSTLDLSGSRETPSSILLGSNQGSDHSRSNKSSWSSSDEKRGSTRSDHNTSTSTKSLLPKESRLDTFWD
For B6, the “Total (peptides)” value [1] was 1 and the “Unique (peptides)” value [1] was 1.

Source: US20250283871A1, “COMPOSITIONS AND METHODS FOR MODULATING THE INTERACTION BETWEEN SS18-SSX FUSION ONCOPROTEIN AND NUCLEOSOMES” (Dana-Farber Cancer Institute, Inc., priority 2020, published 2025)
